{"source": "PubChem BioAssay AID2685", "about": "(National Center for Advancing Translational Sciences (NCATS), 2010)", "note": "Out of some 320,000 compounds screened, about 2,100 (0.66%) were called active. The shares of active, inactive and inconclusive entries below differ from those in the screen. Calls come from the whole dose curve; as a rule, active = well fitted inhibition curve with a large enough effect in the signal ratio, with a control signal flat (not every such curve was filed as active); inconclusive = small, poorly fitted or top-dose-only effect, or effect the other way, or a change in a side signal; inactive = flat fitted curve, though single readings scatter; the % refers to the signal ratio. Potencies beside an inconclusive call are fits to weak or partial responses and may not hold up. % is set by controls: 0 for no effect and ±100 for the full control effect; potency is the fitted concentration of half-maximal effect.", "data": [{"assay": "qHTS Assay for Lipid Storage Modulators in Drosophila S3 Cells", "conditions": "BODIPY lipid droplet fluorescence, 18-24 h, cells fed with added oleic acid; lipid storage change, negative = inhibition: at 46.1 µM (top of the series) unless noted", "method_in_brief": "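Drosophila S3 cells loaded with oleic acid (400 uM, as added) and compounds at several concentrations; lipid droplets imaged by 488-nm laser-scanning cytometry, 500–530 nm intensity and object ratio to cell channel. Percent activity normalized to 20 uM Triacsin C.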", "values": [{"smiles": "CCOc1cccc2c1OC1(CCCCC1)N1N=C(c3cccnc3)CC21", "note": "(stereo not drawn)", "Potency": "inconclusive: 0.259 µM [rising, full curve, poor fit]"}, {"smiles": "CCOC(=O)Cc1csc(NC(=S)NC(=O)c2cc(OC)c(OC)c(OC)c2)n1", "lipid storage change, negative = inhibition": "inactive"}, {"smiles": "O=C(NCCC(=O)N(Cc1ccco1)Cc1cccs1)c1ccc(Br)cc1", "Potency": "inconclusive: 29.1 µM [falling, single point]"}, {"smiles": "O=C(Nc1ccncc1)c1cccc(S(=O)(=O)N2CCCC2)c1", "lipid storage change, negative = inhibition": "inconclusive: -11.3%"}, {"smiles": "N#CCC(=O)Nc1ccc(C(=O)N2CCN(S(=O)(=O)c3ccc4ccccc4c3)CC2)cc1", "lipid storage change, negative = inhibition": "inconclusive: 4.2%"}, {"smiles": "O=C(Nc1ccc(NC(=O)C2CC2)nc1)c1cccs1", "lipid storage change, negative = inhibition": "inconclusive: 38.8%"}, {"smiles": "CC(CC(=O)Nc1cccc(S(=O)(=O)N2CCCCC2)c1)c1ccccc1", "note": "(stereo not drawn)", "Potency": "inconclusive: 0.259 µM [falling, partial curve, poor fit]"}, {"smiles": "CCOC(=O)N1CCN(C(=O)c2ccc(Cl)c(S(=O)(=O)N3CCCC3)c2)CC1", "Potency": "inconclusive: 0.92 µM [activator, full curve, poor fit]"}, {"smiles": "c1ccc(Oc2nc(-c3cccnc3)nc3ccccc23)cc1", "lipid storage change, negative = inhibition": "inconclusive: 2.28%"}, {"smiles": "Cc1ccc2[nH]c(=O)c(CN(CC3CCCO3)C(=S)Nc3ccccc3)cc2c1", "note": "(stereo not drawn)", "lipid storage change, negative = inhibition": "inactive"}, {"smiles": "COc1ccccc1CNC(=O)COC(=O)c1cc([N+](=O)[O-])ccc1N1CCOCC1", "Potency": "inconclusive: 14.6 µM [falling, partial curve, poor fit]"}, {"smiles": "CCCN(Cc1ccccc1)S(=O)(=O)c1ccc(N2C(=O)CCC2=O)cc1", "lipid storage change, negative = inhibition": "inconclusive: 11.6%"}, {"smiles": "CC1N(C)c2cc(NC(=O)c3ccco3)c(P(=O)(Nc3ccc([N+](=O)[O-])cc3)N3CCOCC3)cc2C1(C)C", "note": "(stereo not drawn)", "lipid storage change, negative = inhibition": "inconclusive: -78%"}, {"smiles": "COc1c2c(cc3oc(=O)ccc13)OC(C)(C)C=C2", "lipid storage change, negative = inhibition": "inconclusive: 14.6%"}, {"smiles": "O=C(NCc1ccccc1)C1CCC(CNS(=O)(=O)c2cccs2)CC1", "note": "(stereo not drawn)", "Potency": "inconclusive: 29.1 µM [falling, single point]"}, {"smiles": "Cc1ccc2cc(CN(CC3CCCO3)C(=O)Nc3ccccc3F)c3nnnn3c2c1", "note": "(stereo not drawn)", "lipid storage change, negative = inhibition": "inconclusive: 16.5%"}, {"smiles": "Cc1[nH]c2ccccc2c(=O)c1CN1CCCCC1", "Potency": "inconclusive: 25.9 µM [falling, single point]"}, {"smiles": "Cc1cccc(OCC(=O)O/N=C(\\N)c2ccncc2)c1", "lipid storage change, negative = inhibition": "inconclusive: -54.5%"}, {"smiles": "O=C(CSc1cccc[n+]1[O-])Nc1ccc([N+](=O)[O-])cc1Cl", "lipid storage change, negative = inhibition": "inconclusive: -1.73%"}, {"smiles": "O=C(Nc1ccccc1F)Nc1cccc2ccc(O)cc12", "lipid storage change, negative = inhibition": "inconclusive: -15%"}, {"smiles": "COc1ccc(C(C#N)N2CCCCC2)cc1OC", "note": "(stereo not drawn)", "lipid storage change, negative = inhibition": "inconclusive: 42.1%"}, {"smiles": "COc1ccc(NS(=O)(=O)c2cccc(C(=O)NCC(c3ccc(OC)cc3)N3CCOCC3)c2)cc1", "note": "(stereo not drawn)", "lipid storage change, negative = inhibition": "inconclusive: -37.1%"}, {"smiles": "NC(=O)c1c(NC(=O)Cc2ccccc2)sc2c1CCN(Cc1ccccc1)C2", "Potency": "inconclusive: 29.1 µM [falling, single point]"}, {"smiles": "CCC(C(=O)NC1CCCCC1)n1c(SCc2ccccc2F)nc2ccncc21", "note": "(stereo not drawn)", "lipid storage change, negative = inhibition": "inconclusive: 3.21%"}, {"smiles": "CCCCC1=NN(C(=O)c2ccco2)C(O)(C(F)(F)F)C1", "note": "(stereo not drawn)", "lipid storage change, negative = inhibition": "inconclusive: -7.7%"}, {"smiles": "CCN1CCN(C(=O)/C=C\\C(=O)O)CC1", "lipid storage change, negative = inhibition": "inconclusive: -44.7%"}, {"smiles": "CCOc1cc(/C=N/NC(=O)c2cccc([N+](=O)[O-])c2)ccc1OS(=O)(=O)c1ccccc1", "lipid storage change, negative = inhibition": "inconclusive: -20.7%"}, {"smiles": "Cc1cccc(OC(C)C(=O)Nc2nccs2)c1", "note": "(stereo not drawn)", "lipid storage change, negative = inhibition": "inconclusive: 46.7%"}, {"smiles": "COCCCn1c(C)nnc1SCC(=O)Nc1cccc(C)c1", "Potency": "inconclusive: 29.1 µM [activator, single point]"}, {"smiles": "Cn1cc(S(=O)(=O)N2CCOCC2)cc1C(=O)Nc1cccc(Cl)c1", "Potency": "active: 7.31 µM"}, {"smiles": "O=C(c1ccccc1)c1ccc2nc(N3CCCCC3)c3nncn3c2c1", "lipid storage change, negative = inhibition": "inconclusive: 16.5%"}, {"smiles": "CCS(=O)(=O)N1CCC(NC(=O)C(Cc2cccc(OC)c2OC)NC(C)=O)CC1", "note": "(stereo not drawn)", "Potency": "inconclusive: 23.1 µM [activator, partial curve, poor fit]"}, {"smiles": "Cc1cc(C(=O)Nc2nncs2)oc1C", "lipid storage change, negative = inhibition": "inconclusive: 86.8%"}, {"smiles": "COc1ccc(CSc2cccc3cccnc23)cc1[N+](=O)[O-]", "Potency": "inconclusive: 0.0116 µM [activator, full curve]"}, {"smiles": "Cc1ccccc1Cn1c(CN2CCc3ccccc3C2)nc2c1c(=O)n(C)c(=O)n2C", "lipid storage change, negative = inhibition": "inconclusive: 12.4%"}, {"smiles": "CC1CCCCC12NC(=O)N(CC(=O)Nc1cccnc1Cl)C2=O", "note": "(stereo not drawn)", "Potency": "inconclusive: 6.51 µM [falling, single point]"}, {"smiles": "C#CCN1C(=O)S/C(=C/c2cc(C)n(CC)c2C)C1=O", "lipid storage change, negative = inhibition": "inconclusive: -20.6%"}, {"smiles": "O=C(c1cccc(OC2CCN(Cc3ccc(F)cc3Cl)CC2)c1)N1CCCC1", "lipid storage change, negative = inhibition": "inconclusive: 34.5%"}, {"smiles": "Cc1ccc(C(CNS(=O)(=O)c2ccccc2)N2CCN(C)CC2)cc1", "note": "(stereo not drawn)", "lipid storage change, negative = inhibition": "inactive"}, {"smiles": "Cc1ccc(CNS(=O)(=O)c2ccc([N+](=O)[O-])cc2)cc1", "Potency": "inconclusive: 0.651 µM [activator, partial curve, poor fit]"}, {"smiles": "Cc1cc(C(=O)OCC(N)=O)c(C)n1-c1ccccc1", "lipid storage change, negative = inhibition": "inconclusive: 9.77%"}, {"smiles": "CCOC(=O)CN1CC23C=CC(O2)C(C(=O)NCc2ccc(C)cc2)C3C1=O", "note": "(stereo not drawn)", "Potency": "inconclusive: 0.731 µM [activator, single point]"}, {"smiles": "Cc1snc(SCc2ccc(Cl)cc2)c1C#N", "lipid storage change, negative = inhibition": "inconclusive: 20.4%"}, {"smiles": "CCn1c(SCC(=O)n2nc(C)cc2C)nnc1-c1ccc2c(c1)OCO2", "lipid storage change, negative = inhibition": "inconclusive: 7.14%"}, {"smiles": "CCN(CC)S(=O)(=O)c1ccc(-c2nnc(SCc3nnc(-c4ccc(C)cc4)o3)n2CC)cc1", "Potency": "inconclusive: 20.6 µM [activator, partial curve, poor fit]"}, {"smiles": "O=C(O)/C=C/c1ccc(S(=O)(=O)Nc2ccccc2C(=O)Nc2ccc(F)cc2)cc1", "lipid storage change, negative = inhibition": "inconclusive: -100%"}, {"smiles": "COc1ccccc1CNC(=O)Cn1nnnc1CN(C)C(C)C", "Potency": "inconclusive: 0.0184 µM [activator, full curve, poor fit]"}, {"smiles": "Cn1cc(/C=C2/SC(=O)N(CC(=O)Nc3ccc4c(c3)OCO4)C2=O)c2ccccc21", "lipid storage change, negative = inhibition": "inconclusive: -59.7%"}]}]}
